From patent US20240189325A1 (scPharmaceuticals Inc., priority 2021, published 2024)

Assays:
[1] = population PK-PD model, patients with chronic heart failure; to be divided by factor FER
[2] = Study scP-01-002: 80 mg SC as 30 mg over first hour then 12.5 mg per hour over 4 hours vs IV 40 mg x 2

## NS(=O)(=O)c1cc(C(=O)O)c(NCc2ccco2)cc1Cl [furosemide, 4-chloro-2-(furan-2-ylmethylamino)-5-sulfamoyl-benzoic acid]
[1]
  IC50, furosemide excretion rate into urine that provides 50% of maximum urine output rate: 1,735,300 ng/hr
[2]
  Bioequivalence of SC infusion to IV on AUC0-2, AUC0-4 and AUC0-6: fell outside on the lower bound of the 80.00%-125.00% BE limits
[2]; limits 80.00-[…]
  Bioequivalence of SC infusion to IV on AUC0-8, AUClast and AUCinf: BE to the IV, LD
